According to PubChem BioAssay AID504467 (National Center for Advancing Translational Sciences (NCATS), 2011):
In all, about 330,000 compounds went through this assay and about 7,700 (2.3%) were called active. This list was built around the results that the source calls inconclusive (neither active nor inactive); the mix of calls is not that of the screen. The call rests on the fitted dose curve; in most records, active means well fitted inhibition curve with a large enough effect; inconclusive means small, poorly fitted or top-dose-only effect, or effect the other way; inactive means flat fitted curve, though single readings scatter. A potency beside an inconclusive call is a rough fit, not a confirmed value.

Test: qHTS screen for small molecules that inhibit ELG1-dependent DNA repair in human embryonic kidney (HEK293T) cells expressing luciferase-tagged ELG1; further: nearly all actives have a fitted effect of over 55% in size
Conditions: HEK293T ELG1-luciferase reporter, luminescence, 16 h, DNA damage induced by 5-fluorouridine; activity change, negative = inhibition: at 46.1 µM (top of the series)
Procedure, shortened: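 In this reporter screen, reduction of luminescence relative to DMSO vehicle indicated activity. Compounds and 5-fluorouridine were added together to 2,000 cells per well, incubated for 16 hr at 37 °C, then developed with ONE-Glo.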
On the % scale 0 is the no-effect control and ±100 the full control effect; potency means the concentration at half of the fitted maximal effect.

Compound	activity change, negative = inhibition	Potency
Cc1cc(C)n(CCCNC(=O)C2CC(=O)N(Cc3ccccc3)C2)n1 (stereo not drawn)	inactive: 3.22%	
CSc1ncc(Cl)c(C(=O)Nc2cccc3ccccc23)n1	inactive: 9.06%	
Cc1ccc(S(=O)(=O)c2c(C(=O)c3ccccc3)cnc3cc4c(cc23)OCCO4)cc1		inconclusive: 18.4 µM [inhibitor, partial curve, poor fit]
O=C(Nc1cccc(Cl)c1)N(CCN1CCOCC1)Cc1cccc(Cl)c1		inconclusive: 29.1 µM [inhibitor, single point]
CCOc1ccc(OCc2cccc(C(=O)Nc3ccc(CN4CCCCC4)cc3)c2)cc1		inconclusive: 2.59 µM [activator, partial curve]
O=C1C=C(NC(=O)Nc2ccc(Cl)c(Cl)c2)CCC1		inconclusive: 18.3 µM [activator, single point]
COc1ccc2c(c1)c(C(=O)N/N=C/c1ccc(Br)cc1)c(C)n2C		inconclusive: 11.6 µM [inhibitor, partial curve, poor fit]
Cc1cccc(C)c1NS(=O)(=O)c1c(C(=O)N2CCCCC2)c(C)n(C)c1C	inactive: 9.2%	
Cc1ccc(S(=O)(=O)NC2=NCCCCC2)cc1		inconclusive: 10.3 µM [activator, partial curve]
COC(=O)CC/C(O)=C1\C(=O)CC(C)(C)CC1=Nc1ccccc1OC		inconclusive: 32.6 µM [inhibitor, partial curve, poor fit]
CC(C)N(Cc1ccccc1)C(=O)COC(=O)c1cnc(Cl)c(Cl)c1		inconclusive: 18.3 µM [activator, single point]
COc1ccc(N(CC(=O)NC2CCCC2)C(=O)Cn2nnc(-c3ccc(F)cc3)n2)cc1	inactive: -28.5%	
COCCN(C(=O)COC(=O)c1cccs1)c1c(N)n(Cc2ccccc2)c(=O)[nH]c1=O	inactive: 13.9%	
Cc1cc(C(C)(C)C)cc(C)c1C[n+]1ccc2ccccc2c1		inconclusive: 3.26 µM [inhibitor, partial curve, poor fit]
Cc1ccc(C(=O)Oc2cc(N)n(S(=O)(=O)c3ccc(F)cc3)n2)cc1	inactive: -8.78%	
C[C@H](CO)N1C[C@H](C)[C@@H](CN(C)Cc2ccccc2)Oc2c(NS(=O)(=O)c3ccccc3)cccc2C1=O		inconclusive: 20.6 µM [activator, partial curve, poor fit]
CCOC(=O)c1ccc2ncc(C(=O)OCC)c(NCc3ccco3)c2c1		inconclusive: 20.6 µM [inhibitor, partial curve, poor fit]
COc1ccc(C(=O)OCC(=O)Nc2nnc(-c3ccccc3)o2)cc1	inactive: -5.85%	
O=C(CNc1ccccc1OC(F)F)N1CCc2ccccc21		inconclusive: 18.3 µM [activator, partial curve]
Nc1ccc(-c2nc3ccc(N)cc3o2)cc1		inconclusive: 9.2 µM [activator, partial curve]
Cc1cc(N2CCN(C)CC2)nc2ccc(NC(=S)N3CCCCCC3)cc12	inactive: 3.88%	
NC(=S)n1[nH]c(-c2ccc([N+](=O)[O-])cc2)c(N=Nc2cccc([N+](=O)[O-])c2)c1=O		active: 3.26 µM
Cc1cc(C)nc(SCNC(=O)c2ccc(Cl)cc2)n1		inconclusive: 32.6 µM [activator, partial curve, poor fit]

Single records, from the list above:
`NC(=S)n1[nH]c(-c2ccc([N+](=O)[O-])cc2)c(N=Nc2cccc([N+](=O)[O-])c2)c1=O` as listed: Potency: active: 3.26 µM
`Cc1ccc(S(=O)(=O)c2c(C(=O)c3ccccc3)cnc3cc4c(cc23)OCCO4)cc1` as listed: Potency: inconclusive: 18.4 µM [inhibitor, partial curve, poor fit]
`CCOc1ccc(OCc2cccc(C(=O)Nc3ccc(CN4CCCCC4)cc3)c2)cc1` as listed: Potency: inconclusive: 2.59 µM [activator, partial curve]
`CSc1ncc(Cl)c(C(=O)Nc2cccc3ccccc23)n1` as listed: activity change, negative = inhibition: inactive: 9.06%

The list continues.

Compound	activity change, negative = inhibition	Potency
O=C(/C=C/c1ccc([N+](=O)[O-])cc1)NCc1cccs1		inconclusive: 16.4 µM [activator, partial curve, poor fit]
CCc1c(C(=O)NC(C)C2CCCO2)csc1C (stereo not drawn)		inconclusive: 20.6 µM [activator, single point]
CC(/C=N\NC(=O)c1ccc(C)nc1)=C\c1ccccc1	inactive: 28.3%	
Cc1ccc(C(=O)C=CNNC(=O)c2ccccc2)cc1		inconclusive: 29.1 µM [activator, single point]
O=C(CSc1nc(-c2ccccc2)cs1)Nc1cccc([N+](=O)[O-])c1		inconclusive: 29.1 µM [inhibitor, single point]
C=CCOc1ccc(/C=C(\C#N)C(=O)Nc2ccccn2)cc1OC	inactive: 13.2%	
Cc1nn(C)cc1CN(C)Cc1ccc(OCC(O)CN2CCCCC2)cc1 (stereo not drawn)	inactive: -13.5%	
CCC(=O)[C@@]1(C)[C@H](C)C[C@H]2[C@@H]3CCC4=CC(=O)C=C[C@]4(C)[C@H]3[C@@H](O)C[C@@]21C		inconclusive: 14.1 µM [inhibitor, single point]
COc1ccc(OC)c(-c2nnc3n2N=C(c2ccc(OC)c(OCC4CC4)c2)CS3)c1		inconclusive: 29.1 µM [inhibitor, single point]
CC(=O)c1cccc(S(=O)(=O)N2CCC(C(=O)N(C)Cc3ccc(Cl)s3)CC2)c1		inconclusive: 16.4 µM [inhibitor, single point]
COc1ccc(NC(=O)Nc2nc3c(s2)CCCC3)cc1		inconclusive: 5.17 µM [activator, partial curve]
Cc1ccc(C2=CC(c3cccs3)n3nnnc3N2)cc1 (stereo not drawn)		inconclusive: 7.31 µM [activator, single point]
Cc1onc(-c2c(Cl)cccc2Cl)c1C(=O)Nc1nccs1		active: 23.1 µM
Cc1ccnc(NC(=S)NC(=O)c2cccs2)c1		inconclusive: 1.16 µM [activator, full curve]
CCN(CC)S(=O)(=O)c1ccc(N2CCCC2)c(NC(=O)c2ccc([N+](=O)[O-])o2)c1		inconclusive: 29.1 µM [inhibitor, single point]
COc1ccc(C(=O)N2N=C(c3ccc(NS(C)(=O)=O)cc3)CC2c2cccs2)cc1 (stereo not drawn)		active: 18.3 µM
CCOC(=O)c1[nH]c2cc(OC)c(OC)cc2c1NC(=O)CN(C)C1CCCCC1		inconclusive: 29.1 µM [inhibitor, single point]
COc1ccc(CN2CCN(Cc3ccccc3C(F)(F)F)CC2)c(OC)c1	inactive: -8.04%	
Cc1cc(NC(=O)NCc2ccccc2)c(=O)n(Cc2ccc(F)cc2)c1	inactive: -2.63%	
O=C(O)C(Cc1ccc(Cl)cc1)Sc1nc2ccccc2[nH]1 (stereo not drawn)	inactive: 14.1%	
O=C(O)/C=C/c1ccc(OCCCF)cc1		inconclusive: 23.1 µM [activator, partial curve, poor fit]
C[C@@H](C(=O)Nc1ccc2c(c1)OCCO2)n1nnc2ccccc2c1=O		inconclusive: 16.4 µM [activator, partial curve]
Cc1ccccc1OCC(=O)NNC(=O)C1CCN(c2ncnc3sc(C)c(C)c23)CC1		active: 20.6 µM

Compound	activity change, negative = inhibition	Potency
O=S(=O)(NCc1cccnc1)c1cccn1-c1ncc(C(F)(F)F)cc1Cl		inconclusive: 1.03 µM [inhibitor, partial curve, poor fit]
Cc1ccc(-c2nc(NCC3CCCO3)sc2C)cc1 (stereo not drawn)		inconclusive: 20.6 µM [activator, partial curve]
Cn1cc(CN2CCCC(C(=O)c3cccs3)C2)c(-c2cccc(Cl)c2)n1 (stereo not drawn)	inactive: -21.4%	
O=C(CCNC(=O)c1ccc(Cl)cc1)Nc1cccc(S(=O)(=O)N2CCCCC2)c1		inconclusive: 18.3 µM [inhibitor, single point]
O=C(NC(=S)Nc1ccccc1OC(F)F)c1ccc2c(c1)OCO2		inconclusive: 4.61 µM [activator, single point]
COc1ccc(C2=C(SC)CC2=NC(C)(C)C)cc1		inconclusive: 18.4 µM [activator, single point]
CC1=NN(c2ccc(C)c(C)c2)C(=O)C1C(c1cccc(O)c1)C1C(=O)N(c2ccc(C)c(C)c2)N=C1C (stereo not drawn)		inconclusive: 16.4 µM [activator, partial curve, poor fit]
S=C(c1ccc(N2CCCC2)c(Br)c1)N1CCCCC1		inconclusive: 16.4 µM [activator, single point]
Cc1ccc2nsnc2c1S(=O)(=O)N1CCN(CCc2ccccc2)CC1		inconclusive: 18.4 µM [inhibitor, single point]
Cc1cc(C)n2nc(C(=O)OCC(=O)c3c[nH]c4ccccc34)nc2n1	inactive: -2.95%	
COc1ccc(C(=O)N[C@H](C(=O)NCC2CCCCC2)C(C)C)cc1		inconclusive: 23.1 µM [inhibitor, single point]
O=C(C1=C[C@H](c2ccc(C(F)(F)F)cc2)C[C@H](OCc2ccc(CO)cc2)O1)N1CCCCCCC1		inconclusive: 23.1 µM [inhibitor, single point]
c1csc(-c2noc(CN3CCOCC3)n2)c1		inconclusive: 20.6 µM [activator, partial curve]
COc1ccc(C(=O)NC(Cn2ccnc2)C(C)(C)C)cc1OC1CCN(C(C)C)CC1 (stereo not drawn)	inactive: 25.8%	
O=C(C1CCN(c2nc(-c3ccccc3)nc3c2CCC3)CC1)N1CCC(O)CC1		inconclusive: 14.6 µM [inhibitor, partial curve, poor fit]
CSc1ccc(C2=CC(=O)C[C@H](c3ccc(F)cc3)C2)cc1		inconclusive: 18.3 µM [inhibitor, single point]
COc1ccc(C(CC(=O)c2ccccc2)CC(=O)c2ccccc2)cc1		inconclusive: 29.1 µM [inhibitor, single point]
COc1cccc(N(CC(=O)N2CCOCC2)S(C)(=O)=O)c1	inactive: 5.13%	
CCOc1ccc(N(C)c2ccc(/C=C3/SC(=S)NC3=O)cc2)cc1	inactive: -14.8%	
COc1ccccc1C1OC2=C(Nc3ccc([N+](=O)[O-])cc3N2)C1=O (stereo not drawn)		active: 23.1 µM
CC(=O)c1c(C)[nH]c(C(=O)NC2=NCCS2)c1C		inconclusive: 13 µM [activator, partial curve]
CC(=O)Oc1cccc(N2C(=O)c3ccc(C(=O)Nc4cccnc4)cc3C2=O)c1	inactive: 22.3%	
